Reference: US8849577B2, “Methods of identifying biochemical pathways” (Metabolon, Inc., priority 2006, dated 2014)

Tested on: adipocyte cells
Experiment: Metabolomic analysis of test compounds in adipocyte cultures
Format: cell-based, human
Method: The cell cultures used in this example were performed according to standard protocols with the cells in 10% FCS. […] The adipocytes were human and fully differentiated.
The target of the agent is not present in the cell cultures assayed, thus the changed compounds for each culture represent off-target effects, and therefore, the number of changed compounds can be used to generate a score that can be used as one criteria to rank the test compounds.

Compound | rank of test compounds by number of changed compounds (off-target effects)
COC(=O)N[C@H](C(=O)N[C@@H](Cc1ccccc1)[C@@H](O)CN(Cc1ccc(-c2ccccn2)cc1)NC(=O)[C@@H](NC(=O)OC)C(C)(C)C)C(C)(C)C [ATV] | followed by ATV and LPV
Cc1cccc(C)c1OCC(=O)N[C@@H](Cc1ccccc1)[C@@H](O)C[C@H](Cc1ccccc1)NC(=O)[C@H](C(C)C)N1CCCNC1=O [LPV] | followed by ATV and LPV
